Laboratory results: PubChem BioAssay AID493246 (Drosophila RNAi Screening Center, 2011)
The screen tested about 21,000 reagents; below is an unselected part of those that have a named target and a result. Of all reagents, 429 (2%) were called active. 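Values are raw and not normalised between plates; calls rest on per-plate z-scores that were not deposited.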 Reagents against one gene are numbered here. A plus sign joins genes that one reagent is predicted to hit. Not given: the amount of reagent, the time to read-out.

Screen: 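Genome-wide search for dsRNAs that reduce cell number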 (primary screen)
System: Drosophila Kc and S2R+ cells
Reagent: long dsRNA against Drosophila genes
Read-out: 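Cell number per well after knock-down, printed as raw plate values; calls were based on per-plate z-scores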
Direction: Kc cell number and S2R+ cell number: higher = more cells remaining
Hit rule: 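Counted as a hit if cell number falls by a z-score of at least 3 within its plate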

TfAP-2 — Kc cell number, rep 1 = 1.27e6; Kc cell number, rep 2 = 1.54e6; S2R+ cell number, rep 1 = 1.27e6; S2R+ cell number, rep 2 = 1.31e6; activity call = inactive
LanA — Kc cell number, rep 1 = 1.30e6; Kc cell number, rep 2 = 1.38e6; S2R+ cell number, rep 1 = 1.20e6; S2R+ cell number, rep 2 = 1.17e6; activity call = inactive
CG13078 — Kc cell number, rep 1 = 1.59e6; Kc cell number, rep 2 = 1.61e6; S2R+ cell number, rep 1 = 1.33e6; S2R+ cell number, rep 2 = 5.65e5; activity call = inactive
CG12147 — Kc cell number, rep 1 = 1.70e6; Kc cell number, rep 2 = 1.89e6; S2R+ cell number, rep 1 = 1.14e6; S2R+ cell number, rep 2 = 1.22e6; activity call = inactive
CG11635 + spaw — Kc cell number, rep 1 = 1.48e6; Kc cell number, rep 2 = 1.54e6; S2R+ cell number, rep 1 = 1.26e6; S2R+ cell number, rep 2 = 1.37e6; activity call = inactive
CG13607 — Kc cell number, rep 1 = 1.64e6; Kc cell number, rep 2 = 1.85e6; S2R+ cell number, rep 1 = 1.05e6; S2R+ cell number, rep 2 = 1.15e6; activity call = inactive
CG6470 — Kc cell number, rep 1 = 1.48e6; Kc cell number, rep 2 = 1.50e6; S2R+ cell number, rep 1 = 1.06e6; S2R+ cell number, rep 2 = 1.21e6; activity call = inactive
CG12594 — Kc cell number, rep 1 = 1.36e6; Kc cell number, rep 2 = 1.40e6; S2R+ cell number, rep 1 = 1.32e6; S2R+ cell number, rep 2 = 1.39e6; activity call = inactive
PpD6 — Kc cell number, rep 1 = 1.53e6; Kc cell number, rep 2 = 1.49e6; S2R+ cell number, rep 1 = 1.15e6; S2R+ cell number, rep 2 = 1.27e6; activity call = inactive
mbl #1 — Kc cell number, rep 1 = 1.45e6; Kc cell number, rep 2 = 1.37e6; S2R+ cell number, rep 1 = 9.92e5; S2R+ cell number, rep 2 = 1.11e6; activity call = inactive
mbl #2 — Kc cell number, rep 1 = 1.25e6; Kc cell number, rep 2 = 1.26e6; S2R+ cell number, rep 1 = 6.26e5; S2R+ cell number, rep 2 = 6.71e5; activity call = inactive
mbl #3 — Kc cell number, rep 1 = 1.44e6; Kc cell number, rep 2 = 1.56e6; S2R+ cell number, rep 1 = 7.44e5; S2R+ cell number, rep 2 = 8.60e5; activity call = inactive
Vm34Ca — Kc cell number, rep 1 = 1.54e6; Kc cell number, rep 2 = 1.57e6; S2R+ cell number, rep 1 = 1.05e6; S2R+ cell number, rep 2 = 1.14e6; activity call = inactive
CG13004 — Kc cell number, rep 1 = 1.42e6; Kc cell number, rep 2 = 1.47e6; S2R+ cell number, rep 1 = 1.10e6; S2R+ cell number, rep 2 = 1.16e6; activity call = inactive
mio — Kc cell number, rep 1 = 1.14e6; Kc cell number, rep 2 = 1.30e6; S2R+ cell number, rep 1 = 5.36e5; S2R+ cell number, rep 2 = 4.54e5; activity call = inactive
Pcp — Kc cell number, rep 1 = 1.52e6; Kc cell number, rep 2 = 1.37e6; S2R+ cell number, rep 1 = 1.15e6; S2R+ cell number, rep 2 = 1.30e6; activity call = inactive
CG15153 — Kc cell number, rep 1 = 1.55e6; Kc cell number, rep 2 = 1.64e6; S2R+ cell number, rep 1 = 1.24e6; S2R+ cell number, rep 2 = 1.39e6; activity call = inactive
Uba5 — Kc cell number, rep 1 = 1.54e6; Kc cell number, rep 2 = 1.52e6; S2R+ cell number, rep 1 = 1.01e6; S2R+ cell number, rep 2 = 1.10e6; activity call = inactive
CG1773 — Kc cell number, rep 1 = 1.36e6; Kc cell number, rep 2 = 1.37e6; S2R+ cell number, rep 1 = 1.05e6; S2R+ cell number, rep 2 = 1.15e6; activity call = inactive
Eig71Eh — Kc cell number, rep 1 = 1.32e6; Kc cell number, rep 2 = 1.42e6; S2R+ cell number, rep 1 = 1.23e6; S2R+ cell number, rep 2 = 1.36e6; activity call = inactive
Su(var)3-7 — Kc cell number, rep 1 = 1.45e6; Kc cell number, rep 2 = 1.44e6; S2R+ cell number, rep 1 = 1.15e6; S2R+ cell number, rep 2 = 1.22e6; activity call = inactive

No new results follow: an excerpt of the list.
CG6470 — Kc cell number, rep 1 = 1.48e6; Kc cell number, rep 2 = 1.50e6; S2R+ cell number, rep 1 = 1.06e6; S2R+ cell number, rep 2 = 1.21e6; activity call = inactive
CG12594 — Kc cell number, rep 1 = 1.36e6; Kc cell number, rep 2 = 1.40e6; S2R+ cell number, rep 1 = 1.32e6; S2R+ cell number, rep 2 = 1.39e6; activity call = inactive
